No constants are given. Whether binding was seen depends on the method and setting.
Biological target: T1, FERM domain of the protein tyrosine phosphatase PTPN13, yeast two-hybrid control (UniProt Q12923)
T1 sequence: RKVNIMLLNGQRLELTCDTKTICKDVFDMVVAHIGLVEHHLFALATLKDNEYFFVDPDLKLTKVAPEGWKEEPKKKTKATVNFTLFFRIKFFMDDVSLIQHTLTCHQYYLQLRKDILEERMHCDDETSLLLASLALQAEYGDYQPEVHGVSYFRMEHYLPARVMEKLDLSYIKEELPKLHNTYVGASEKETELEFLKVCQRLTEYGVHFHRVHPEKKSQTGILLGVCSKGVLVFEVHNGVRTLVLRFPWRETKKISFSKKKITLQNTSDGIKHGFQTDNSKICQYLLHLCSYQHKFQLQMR
Assay: two-hybrid; yeast two-hybrid; SDCCAG3 aa 1-100 as bait (screen), then IFT88 (full-length) co-transformed with SDCCAG3 aa 1-100 or negative control plasmids; growth on media deficient for Trp, Leu and His

binding: no binding
B1: IFT88 (full-length), yeast two-hybrid construct (protein, UniProt Q13099 1-824)
chain: MMQNVHLAPETDEDDLYSGYNDYNPIYDIEELENDAAFQQAVRTSHGRRPPITAKISSTAVTRPIATGYGSKTSLASSIGRPMTGAIQDGVTRPMTAVRAAGFTKAALRGSAFDPLSQSRGPASPLEAKKKDSPEEKIKQLEKEVNELVEESCIANSCGDLKLALEKAKDAGRKERVLVRQREQVTTPENINLDLTYSVLFNLASQYSVNEMYAEALNTYQVIVKNKMFSNAGILKMNMGNIYLKQRNYSKAIKFYRMALDQVPSVNKQMRIKIMQNIGVTFIQAGQYSDAINSYEHIMSMAPNLKAGYNLTICYFAIGDREKMKKAFQKLITVPLEIDEDKYISPSDDPHTNLVTEAIKNDHLRQMERERKAMAEKYIMTSAKLIAPVIETSFAAGYDWCVEVVKASQYVELANDLEINKAVTYLRQKDYNQAVEILKVLEKKDSRVKSAAATNLSALYYMGKDFAQASSYADIAVNSDRYNPAALTNKGNTVFANGDYEKAAEFYKEALRNDSSCTEALYNIGLTYEKLNRLDEALDCFLKLHAILRNSAEVLYQIANIYELMENPSQAIEWLMQVVSVIPTDPQVLSKLGELYDREGDKSQAFQYYYESYRYFPCNIEVIEWLGAYYIDTQFWEKAIQYFERASLIQPTQVKWQLMVASCFRRSGNYQKALDTYKDTHRKFPENVECLRFLVRLCTDLGLKDAQEYARKLKRLEKMKEIREQRIKSGRDGSGGSRGKREGSASGDSGQNYSASSKGERLSARLRALPGTNEPYESSSNKEIDASYVDPLGPQIERPKTAAKKRIDEDDFADEELGDDLLPE

Source: PMC5073310
